Test results taken from patent US20130039922A1.
No constants are given. Whether binding was seen depends on the method and setting. A result given as binding can be weak or reduced; the word gives no strength.

Biological target: mouse MMP-9 catalytic domain (mouse)
Experiment: ELISA, biotinylated MMP-9 on streptavidin plate, soluble antibody, peroxidase anti-mouse IgG

B1: SDS3 (antibody, V domains shown)
VH: VQLQESGGGLVKPGGSLKLSCAASGFAFSTYDMSWIRQTPEKRLEWVATISSGGSYTYYPDSVKGRFTISKDNARNTLYLQMSSLRSGDTALYYCTRFRYDGWYFDVWGQG
VL: DVLITQTPLSLPVSLGDQASISCRSSQSIVHSNGNTFLEWYLQKPGQSPKLLIYKVSNRFSGVPDRFSGSGSGTDFTLKISRVEAEDLGVYYCFQASHVPPTFGGG
binding: binds
